The supplement of paper PMC11438910
The list shows a part of the results. Most of these values are background signal.

Experiments:
Test in all cases: fluorescence intensity of antibody binding to polysaccharide-coupled beads; higher = stronger binding
[1] = target: pneumococcal polysaccharide Pn11A
Experimental: (§1)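 Recombinant rhesus-murine chimeric IgG1 antibodies were tested against antigen-coupled MagPlex beads in a 96-plex Luminex direct immunoassay (dLIA). The beads carried pneumococcal capsular polysaccharides of 93 serotypes plus C-polysaccharides. Antibody was added at 0.1–12,500 ng/mL for 1 h, then PE anti-mouse IgG, and net MFI was read on a Bio-Plex 3D. Only the rhesus variable regions are printed; constant regions are murine IgG1/kappa/lambda, and the signal peptide is MGWSCIILFLVATATGVHS.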

[2] = target: pneumococcal polysaccharide Pn11B
Experimental: as §1

[3] = target: pneumococcal polysaccharide Pn11C
Experimental: as §1

[4] = target: pneumococcal polysaccharide Pn11D
Experimental: as §1

[5] = target: pneumococcal polysaccharide Pn11F
Experimental: as §1

[6] = target: pneumococcal polysaccharide Pn12A
Experimental: as §1

[7] = target: pneumococcal polysaccharide Pn12B
Experimental: as §1

[8] = target: pneumococcal polysaccharide Pn12F
Experimental: as §1

[9] = target: pneumococcal polysaccharide Pn13
Experimental: as §1

[10] = target: pneumococcal polysaccharide Pn14
Experimental: as §1

[11] = target: pneumococcal polysaccharide Pn15A
Experimental: as §1

[12] = target: pneumococcal polysaccharide Pn15B
Experimental: as §1

[13] = target: pneumococcal polysaccharide Pn15C
Experimental: as §1

[14] = target: pneumococcal polysaccharide Pn15F
Experimental: as §1

[15] = target: pneumococcal polysaccharide Pn16A
Experimental: as §1

[16] = target: pneumococcal polysaccharide Pn16F
Experimental: as §1

[17] = target: pneumococcal polysaccharide Pn17A
Experimental: as §1

[18] = target: pneumococcal polysaccharide Pn17F
Experimental: as §1

[19] = target: pneumococcal polysaccharide Pn18A
Experimental: as §1

[20] = target: pneumococcal polysaccharide Pn18B
Experimental: as §1

[21] = target: pneumococcal polysaccharide Pn18C
Experimental: as §1

[22] = target: pneumococcal polysaccharide Pn18F
Experimental: as §1

[23] = target: pneumococcal polysaccharide Pn19A
Experimental: as §1

[24] = antibody concentration 81.7561 ng/mL
[25] = antibody concentration 437.17 ng/mL
[26] = antibody concentration 2337.65 ng/mL
[27] = antibody concentration 12500 ng/mL
[28] = antibody concentration 0.1 ng/mL
[29] = antibody concentration 0.534724 ng/mL
[30] = antibody concentration 2.8593 ng/mL
[31] = antibody concentration 15.2894 ng/mL

B1: 4-99.4 (protein)
chain 1: QVQLQESGPGLVKPSETLSLTCAVSGYSISSAYFWGWIRQPPGKGLEYIGYISGEGGKSYYNPSLMSRVTISKDTSKNQFSLKLNTVTAADTAVYYCARRAILVGFDLWGQGVLVTVSS
chain 2: QAAPTQPPSVSGSPGQSVTISCTGSNSDIGYYNAVSWYQQHPGKAPKLMIYEVSKRPSGVSDRLTGSKSGNTASLTISGLQAEDEADYYCSSYAGSNTYIFGTGTRLTVL
[1]; [24]
  fluorescence intensity: 30.5 MFI
[1]; [25]
  fluorescence intensity: 33 MFI
[1]; [26]
  fluorescence intensity: 34.5 MFI
[1]; [27]
  fluorescence intensity: 52.5 MFI
[2]; [28]
  fluorescence intensity: 26.5 MFI
[2]; [29]
  fluorescence intensity: 27.5 MFI
[2]; [30]
  fluorescence intensity: 25.5 MFI
[2]; [31]
  fluorescence intensity: 25.5 MFI
[2]; [24]
  fluorescence intensity: 27.5 MFI
[2]; [25]
  fluorescence intensity: 28.2 MFI
[2]; [26]
  fluorescence intensity: 33.5 MFI
[2]; [27]
  fluorescence intensity: 37.5 MFI
[3]; [28]
  fluorescence intensity: 22 MFI
[3]; [29]
  fluorescence intensity: 21.8 MFI
[3]; [30]
  fluorescence intensity: 21 MFI
[3]; [31]
  fluorescence intensity: 22.5 MFI
[3]; [24]
  fluorescence intensity: 21.5 MFI
[3]; [25]
  fluorescence intensity: 21.8 MFI
[3]; [26]
  fluorescence intensity: 28.5 MFI
[3]; [27]
  fluorescence intensity: 86.8 MFI
[4]; [28]
  fluorescence intensity: 22.5 MFI
[4]; [29]
  fluorescence intensity: 24 MFI
[4]; [30]
  fluorescence intensity: 23.5 MFI
[4]; [31]
  fluorescence intensity: 23 MFI
[4]; [24]
  fluorescence intensity: 23 MFI
[4]; [25]
  fluorescence intensity: 23 MFI
[4]; [26]
  fluorescence intensity: 26.5 MFI
[4]; [27]
  fluorescence intensity: 52.5 MFI
[5]; [28]
  fluorescence intensity: 16 MFI
[5]; [29]
  fluorescence intensity: 15 MFI
[5]; [30]
  fluorescence intensity: 14 MFI
[5]; [31]
  fluorescence intensity: 14.2 MFI
[5]; [24]
  fluorescence intensity: 15 MFI
[5]; [25]
  fluorescence intensity: 15.8 MFI
[5]; [26]
  fluorescence intensity: 16.2 MFI
[5]; [27]
  fluorescence intensity: 23 MFI
[6]; [28]
  fluorescence intensity: 15.5 MFI
[6]; [29]
  fluorescence intensity: 16.5 MFI
[6]; [30]
  fluorescence intensity: 14.5 MFI
[6]; [31]
  fluorescence intensity: 13.8 MFI
[6]; [24]
  fluorescence intensity: 14.5 MFI
[6]; [25]
  fluorescence intensity: 16 MFI
[6]; [26]
  fluorescence intensity: 17.5 MFI
[6]; [27]
  fluorescence intensity: 29.5 MFI
[7]; [28]
  fluorescence intensity: 16 MFI
[7]; [29]
  fluorescence intensity: 15.5 MFI
[7]; [30]
  fluorescence intensity: 15.5 MFI
[7]; [31]
  fluorescence intensity: 16 MFI
[7]; [24]
  fluorescence intensity: 16.8 MFI
[7]; [25]
  fluorescence intensity: 17 MFI
[7]; [26]
  fluorescence intensity: 18 MFI
[7]; [27]
  fluorescence intensity: 30 MFI
[8]; [28]
  fluorescence intensity: 20 MFI
[8]; [29]
  fluorescence intensity: 19 MFI
[8]; [30]
  fluorescence intensity: 21 MFI
[8]; [31]
  fluorescence intensity: 18.5 MFI
[8]; [24]
  fluorescence intensity: 17.5 MFI
[8]; [25]
  fluorescence intensity: 19.5 MFI
[8]; [26]
  fluorescence intensity: 22 MFI
[8]; [27]
  fluorescence intensity: 42 MFI
[9]; [28]
  fluorescence intensity: 20.2 MFI
[9]; [29]
  fluorescence intensity: 19 MFI
[9]; [30]
  fluorescence intensity: 19 MFI
[9]; [31]
  fluorescence intensity: 18.8 MFI
[9]; [24]
  fluorescence intensity: 18.5 MFI
[9]; [25]
  fluorescence intensity: 19 MFI
[9]; [26]
  fluorescence intensity: 21 MFI
[9]; [27]
  fluorescence intensity: 31 MFI
[10]; [28]
  fluorescence intensity: 15 MFI
[10]; [29]
  fluorescence intensity: 14 MFI
[10]; [30]
  fluorescence intensity: 15.5 MFI
[10]; [31]
  fluorescence intensity: 15.8 MFI
[10]; [24]
  fluorescence intensity: 16 MFI
[10]; [25]
  fluorescence intensity: 16.5 MFI
[10]; [26]
  fluorescence intensity: 20 MFI
[10]; [27]
  fluorescence intensity: 99.8 MFI
[11]; [28]
  fluorescence intensity: 13.5 MFI
[11]; [29]
  fluorescence intensity: 12.5 MFI
[11]; [30]
  fluorescence intensity: 12.5 MFI
[11]; [31]
  fluorescence intensity: 13.5 MFI
[11]; [24]
  fluorescence intensity: 13 MFI
[11]; [25]
  fluorescence intensity: 13.5 MFI
[11]; [26]
  fluorescence intensity: 15 MFI
[11]; [27]
  fluorescence intensity: 15.5 MFI
[12]; [28]
  fluorescence intensity: 20.5 MFI
[12]; [29]
  fluorescence intensity: 20 MFI
[12]; [30]
  fluorescence intensity: 20.5 MFI
[12]; [31]
  fluorescence intensity: 20 MFI
[12]; [24]
  fluorescence intensity: 19.5 MFI
[12]; [25]
  fluorescence intensity: 21.5 MFI
[12]; [26]
  fluorescence intensity: 23 MFI
[12]; [27]
  fluorescence intensity: 35 MFI
[13]; [28]
  fluorescence intensity: 18.2 MFI
[13]; [29]
  fluorescence intensity: 16.8 MFI
[13]; [30]
  fluorescence intensity: 19 MFI
[13]; [31]
  fluorescence intensity: 19 MFI
[13]; [24]
  fluorescence intensity: 17.8 MFI
[13]; [25]
  fluorescence intensity: 16 MFI
[13]; [26]
  fluorescence intensity: 20.5 MFI
[13]; [27]
  fluorescence intensity: 22 MFI
[14]; [28]
  fluorescence intensity: 18.2 MFI
[14]; [29]
  fluorescence intensity: 17 MFI
[14]; [30]
  fluorescence intensity: 17 MFI
[14]; [31]
  fluorescence intensity: 19 MFI
[14]; [24]
  fluorescence intensity: 17.5 MFI
[14]; [25]
  fluorescence intensity: 17.5 MFI
[14]; [26]
  fluorescence intensity: 20.2 MFI
[14]; [27]
  fluorescence intensity: 27.5 MFI
[15]; [28]
  fluorescence intensity: 16 MFI
[15]; [29]
  fluorescence intensity: 14 MFI
[15]; [30]
  fluorescence intensity: 14.5 MFI
[15]; [31]
  fluorescence intensity: 14 MFI
[15]; [24]
  fluorescence intensity: 14 MFI
[15]; [25]
  fluorescence intensity: 14.5 MFI
[15]; [26]
  fluorescence intensity: 17.2 MFI
[15]; [27]
  fluorescence intensity: 20.5 MFI
[16]; [28]
  fluorescence intensity: 25.2 MFI
[16]; [29]
  fluorescence intensity: 25.5 MFI
[16]; [30]
  fluorescence intensity: 24.5 MFI
[16]; [31]
  fluorescence intensity: 23.2 MFI
[16]; [24]
  fluorescence intensity: 23.8 MFI
[16]; [25]
  fluorescence intensity: 26 MFI
[16]; [26]
  fluorescence intensity: 28.2 MFI
[16]; [27]
  fluorescence intensity: 37.5 MFI
[17]; [28]
  fluorescence intensity: 21 MFI
[17]; [29]
  fluorescence intensity: 21.5 MFI
[17]; [30]
  fluorescence intensity: 20.5 MFI
[17]; [31]
  fluorescence intensity: 20.8 MFI
[17]; [24]
  fluorescence intensity: 21 MFI
[17]; [25]
  fluorescence intensity: 20.5 MFI
[17]; [26]
  fluorescence intensity: 22.5 MFI
[17]; [27]
  fluorescence intensity: 24.2 MFI
[18]; [28]
  fluorescence intensity: 24.5 MFI
[18]; [29]
  fluorescence intensity: 28 MFI
[18]; [30]
  fluorescence intensity: 25 MFI
[18]; [31]
  fluorescence intensity: 25.5 MFI
[18]; [24]
  fluorescence intensity: 26.5 MFI
[18]; [25]
  fluorescence intensity: 27.8 MFI
[18]; [26]
  fluorescence intensity: 29 MFI
[18]; [27]
  fluorescence intensity: 30 MFI
[19]; [28]
  fluorescence intensity: 24.5 MFI
[19]; [29]
  fluorescence intensity: 25 MFI
[19]; [30]
  fluorescence intensity: 23.5 MFI
[19]; [31]
  fluorescence intensity: 23.5 MFI
[19]; [24]
  fluorescence intensity: 24 MFI
[19]; [25]
  fluorescence intensity: 24.5 MFI
[19]; [26]
  fluorescence intensity: 25 MFI
[19]; [27]
  fluorescence intensity: 29.8 MFI
[20]; [28]
  fluorescence intensity: 31.2 MFI
[20]; [29]
  fluorescence intensity: 31.5 MFI
[20]; [30]
  fluorescence intensity: 31.5 MFI
[20]; [31]
  fluorescence intensity: 30 MFI
[20]; [24]
  fluorescence intensity: 30.5 MFI
[20]; [25]
  fluorescence intensity: 33 MFI
[20]; [26]
  fluorescence intensity: 35 MFI
[20]; [27]
  fluorescence intensity: 45.2 MFI
[21]; [28]
  fluorescence intensity: 19.5 MFI
[21]; [29]
  fluorescence intensity: 19.5 MFI
[21]; [30]
  fluorescence intensity: 19 MFI
[21]; [31]
  fluorescence intensity: 20.5 MFI
[21]; [24]
  fluorescence intensity: 19.2 MFI
[21]; [25]
  fluorescence intensity: 20.5 MFI
[21]; [26]
  fluorescence intensity: 20.8 MFI
[21]; [27]
  fluorescence intensity: 39.5 MFI
[22]; [28]
  fluorescence intensity: 23.2 MFI
[22]; [29]
  fluorescence intensity: 23 MFI
[22]; [30]
  fluorescence intensity: 23 MFI
[22]; [31]
  fluorescence intensity: 24.5 MFI
[22]; [24]
  fluorescence intensity: 24.5 MFI
[22]; [25]
  fluorescence intensity: 25.5 MFI
[22]; [26]
  fluorescence intensity: 28.5 MFI
[22]; [27]
  fluorescence intensity: 40.5 MFI
[23]; [28]
  fluorescence intensity: 18 MFI
[23]; [29]
  fluorescence intensity: 20 MFI
[23]; [30]
  fluorescence intensity: 20 MFI
[23]; [31]
  fluorescence intensity: 19.5 MFI
[23]; [24]
  fluorescence intensity: 18.5 MFI
[23]; [25]
  fluorescence intensity: 18.5 MFI
[23]; [26]
  fluorescence intensity: 19.5 MFI
[23]; [27]
  fluorescence intensity: 29.5 MFI
